Reference: PMC7900914 (Nature structural & molecular biology, 2017)

Sequences of proteins named here, by UniProt entry; tags and fusion partners are left off. Residues count along the entry.
UniProt P43629, 22-320: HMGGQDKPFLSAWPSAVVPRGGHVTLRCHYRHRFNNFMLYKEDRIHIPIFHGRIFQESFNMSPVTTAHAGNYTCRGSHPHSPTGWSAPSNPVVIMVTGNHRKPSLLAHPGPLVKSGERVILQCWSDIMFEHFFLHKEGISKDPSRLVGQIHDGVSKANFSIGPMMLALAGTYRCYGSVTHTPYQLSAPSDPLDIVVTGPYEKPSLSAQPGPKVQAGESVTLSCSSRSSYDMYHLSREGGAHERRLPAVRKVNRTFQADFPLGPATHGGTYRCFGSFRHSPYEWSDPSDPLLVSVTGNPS

Molecular target: KIR3DL1*001 (Homo sapiens, UniProt P43629)
Settings: ternary complex KIR3DL1*001–HLA-B*57:01–peptide

TSNLQEQIGW [T3N]
direct contacts between KIR3DL1 and peptide: two contacts
